Measurements published in publication PMC11321995.
No constants are given. Whether binding was seen depends on the method and setting. In cells and extracts the contact can be indirect. Some binding calls cover weakened binding; strength is not graded here.

Amino acid sequences for entries named in this document (tags omitted).
UniProt P32243: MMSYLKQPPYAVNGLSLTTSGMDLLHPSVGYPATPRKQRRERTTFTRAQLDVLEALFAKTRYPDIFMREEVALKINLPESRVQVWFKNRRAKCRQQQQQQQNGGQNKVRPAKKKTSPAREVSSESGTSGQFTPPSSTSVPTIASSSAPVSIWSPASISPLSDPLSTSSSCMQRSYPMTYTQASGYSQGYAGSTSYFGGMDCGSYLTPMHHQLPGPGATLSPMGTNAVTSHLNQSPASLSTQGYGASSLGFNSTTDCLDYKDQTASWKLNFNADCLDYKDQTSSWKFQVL

Biological target: orthodenticle homeobox 2 (OTX2), endogenous (human (endogenous in HDMB03)) (UniProt P32243)
Experiment: co-IP; endogenous proteins, HDMB03 tumourspheres grown 3 d; lysis in 25 mM Tris pH 7.4, 150 mM NaCl, 1% Triton X-100, 5 mM EDTA; precipitated overnight with 2 μg OTX2 antibody or IgG; immunoblot for LASR complex members

B1: heterogeneous nuclear ribonucleoprotein M (HNRNPM) (protein, UniProt P52272 1-730)
chain: MAAGVEAAAEVAATEIKMEEESGAPGVPSGNGAPGPKGEGERPAQNEKRKEKNIKRGGNRFEPYANPTKRYRAFITNIPFDVKWQSLKDLVKEKVGEVTYVELLMDAEGKSRGCAVVEFKMEESMKKAAEVLNKHSLSGRPLKVKEDPDGEHARRAMQKVMATTGGMGMGPGGPGMITIPPSILNNPNIPNEIIHALQAGRLGSTVFVANLDYKVGWKKLKEVFSMAGVVVRADILEDKDGKSRGIGTVTFEQSIEAVQAISMFNGQLLFDRPMHVKMDERALPKGDFFPPERPQQLPHGLGGIGMGLGPGGQPIDANHLNKGIGMGNIGPAGMGMEGIGFGINKMGGMEGPFGGGMENMGRFGSGMNMGRINEILSNALKRGEIIAKQGGGGGGGSVPGIERMGPGIDRLGGAGMERMGAGLGHGMDRVGSEIERMGLVMDRMGSVERMGSGIERMGPLGLDHMASSIERMGQTMERIGSGVERMGAGMGFGLERMAAPIDRVGQTIERMGSGVERMGPAIERMGLSMERMVPAGMGAGLERMGPVMDRMATGLERMGANNLERMGLERMGANSLERMGLERMGANSLERMGPAMGPALGAGIERMGLAMGGGGGASFDRAIEMERGNFGGSFAGSFGGAGGHAPGVARKACQIFVRNLPFDFTWKMLKDKFNECGHVLYADIKMENGKSKGCGVVKFESPEVAERACRMMNGMKLSGREIDVRIDRNA
For B1, the binding was “binds”.
